From doi:10.1101/2025.02.20.639226, “In vitro reconstitution of minimal human centrosomes” (bioRxiv, 2025)
No constants are given. Whether binding was seen depends on the method and setting.

Sequences of proteins named here, by UniProt entry; tags and fusion partners are left off. A change or cut given only in a name is not applied to a line headed by its entry. A line that says so, or that is headed by a name, gives the form on record, which may keep a tag or linker.
GFP::CDK5RAP2 isoform B (full-length, wild type) (Q96SN8, form named): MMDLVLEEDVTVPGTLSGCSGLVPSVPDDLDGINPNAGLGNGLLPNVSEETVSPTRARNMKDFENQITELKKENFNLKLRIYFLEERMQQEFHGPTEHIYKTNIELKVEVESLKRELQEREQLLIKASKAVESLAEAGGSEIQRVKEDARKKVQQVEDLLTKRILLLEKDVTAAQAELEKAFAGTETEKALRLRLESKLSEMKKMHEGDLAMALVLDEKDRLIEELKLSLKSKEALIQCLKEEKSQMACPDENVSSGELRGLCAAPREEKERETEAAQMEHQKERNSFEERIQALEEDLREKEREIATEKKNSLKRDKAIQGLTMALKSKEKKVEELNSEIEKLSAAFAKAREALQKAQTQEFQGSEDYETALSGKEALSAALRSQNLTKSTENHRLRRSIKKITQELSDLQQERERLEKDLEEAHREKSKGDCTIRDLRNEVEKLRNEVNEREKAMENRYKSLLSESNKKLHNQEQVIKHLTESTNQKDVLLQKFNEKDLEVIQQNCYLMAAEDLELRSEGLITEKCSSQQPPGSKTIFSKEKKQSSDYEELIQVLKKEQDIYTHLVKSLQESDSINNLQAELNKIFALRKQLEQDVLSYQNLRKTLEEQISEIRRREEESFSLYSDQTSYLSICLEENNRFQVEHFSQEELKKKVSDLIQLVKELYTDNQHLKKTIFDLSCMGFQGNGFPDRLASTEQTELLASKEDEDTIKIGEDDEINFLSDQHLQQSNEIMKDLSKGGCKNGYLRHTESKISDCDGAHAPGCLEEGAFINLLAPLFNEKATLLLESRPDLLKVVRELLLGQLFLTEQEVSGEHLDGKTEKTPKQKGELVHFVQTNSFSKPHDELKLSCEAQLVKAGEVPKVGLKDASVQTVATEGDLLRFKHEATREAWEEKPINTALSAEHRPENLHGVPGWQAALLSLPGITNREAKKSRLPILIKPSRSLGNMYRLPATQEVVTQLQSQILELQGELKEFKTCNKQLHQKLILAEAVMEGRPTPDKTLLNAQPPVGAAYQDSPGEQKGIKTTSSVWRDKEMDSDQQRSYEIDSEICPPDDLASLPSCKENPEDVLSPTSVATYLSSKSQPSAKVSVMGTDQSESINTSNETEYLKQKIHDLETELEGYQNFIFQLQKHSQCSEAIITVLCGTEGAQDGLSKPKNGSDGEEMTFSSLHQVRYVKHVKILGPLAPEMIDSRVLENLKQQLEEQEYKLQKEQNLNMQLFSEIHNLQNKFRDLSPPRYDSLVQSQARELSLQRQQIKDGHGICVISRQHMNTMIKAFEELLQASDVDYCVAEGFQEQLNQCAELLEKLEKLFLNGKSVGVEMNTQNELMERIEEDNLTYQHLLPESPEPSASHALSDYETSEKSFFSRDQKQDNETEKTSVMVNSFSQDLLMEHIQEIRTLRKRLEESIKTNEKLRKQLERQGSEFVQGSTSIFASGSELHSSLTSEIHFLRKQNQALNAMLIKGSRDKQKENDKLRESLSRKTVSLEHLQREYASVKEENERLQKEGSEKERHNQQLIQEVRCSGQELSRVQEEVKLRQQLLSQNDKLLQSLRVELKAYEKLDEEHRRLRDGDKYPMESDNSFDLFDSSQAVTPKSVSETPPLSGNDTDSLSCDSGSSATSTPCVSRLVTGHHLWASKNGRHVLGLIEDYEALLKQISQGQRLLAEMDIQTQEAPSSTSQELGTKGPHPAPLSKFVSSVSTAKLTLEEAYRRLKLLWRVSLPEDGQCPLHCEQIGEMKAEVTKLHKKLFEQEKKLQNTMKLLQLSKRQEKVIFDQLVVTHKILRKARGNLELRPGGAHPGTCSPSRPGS

Target: GFP::CDK5RAP2 isoform B (full-length, wild type) (human) (UniProt Q96SN8)
Experiment: partitioning into in vitro scaffolds, confocal fluorescence microscopy; GFP::CDK5RAP2 assemblies (120nM) induced with anti-CM2 IgM; mCherry, full-length or ΔIDR mCherry::HSET at 50nM; 50mM KCl, 25mM HEPES; partition coefficient; both purified

B1: mCherry::HSET(ΔIDR), missing a.a. 2-138 (domain or fragment, UniProt Q9BW19)
chain: MLKGQLCDLNAELKRCRERTQTLDQENQQLQDQLRDAQQQVKALGTERTTLEGHLAKVQAQAEQGQQELKNLRACVLELEERLSTQEGLVQELQKKQVELQEERRGLMSQLEEKERRLQTSEAALSSSQAEVASLRQETVAQAALLTEREERLHGLEMERRRLHNQLQELKGNIRVFCRVRPVLPGEPTPPPGLLLFPSGPGGPSDPPTRLSLSRSDERRGTLSGAPAPPTRHDFSFDRVFPPGSGQDEVFEEIAMLVQSALDGYPVCIFAYGQTGSGKTFTMEGGPGGDPQLEGLIPRALRHLFSVAQELSGQGWTYSFVASYVEIYNETVRDLLATGTRKGQGGECEIRRAGPGSEELTVTNARYVPVSCEKEVDALLHLARQNRAVARTAQNERSSRSHSVFQLQISGEHSSRGLQCGAPLSLVDLAGSERLDPGLALGPGERERLRETQAINSSLSTLGLVIMALSNKESHVPYRNSKLTYLLQNSLGGSAKMLMFVNISPLEENVSESLNSLRFASKVNQCVIGTAQANRK
With B1 the binding was “no binding (tested: 50nM)”.
